{"sequences": {"note": "Chains of the proteins cited; added tags and fusions are not shown.", "UniProt Q13426": "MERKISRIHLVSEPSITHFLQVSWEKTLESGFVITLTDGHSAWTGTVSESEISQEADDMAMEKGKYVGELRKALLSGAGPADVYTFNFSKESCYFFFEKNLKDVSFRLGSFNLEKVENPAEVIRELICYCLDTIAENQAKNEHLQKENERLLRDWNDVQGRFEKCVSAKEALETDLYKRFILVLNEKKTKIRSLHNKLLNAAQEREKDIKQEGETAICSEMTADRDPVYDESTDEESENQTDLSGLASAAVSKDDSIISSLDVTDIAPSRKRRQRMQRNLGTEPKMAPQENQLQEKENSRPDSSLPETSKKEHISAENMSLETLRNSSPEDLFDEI"}, "source": "paper PMC10683239", "binders": {"B1": {"name": "SAE1, an E1 SUMO-activating enzyme (enzyme, UniProt Q9UBE0 1-346)", "chain": "MVEKEEAGGGISEEEAAQYDRQIRLWGLEAQKRLRASRVLLVGLKGLGAEIAKNLILAGVKGLTMLDHEQVTPEDPGAQFLIRTGSVGRNRAEASLERAQNLNPMVDVKVDTEDIEKKPESFFTQFDAVCLTCCSRDVIVKVDQICHKNSIKFFTGDVFGYHGYTFANLGEHEFVEEKTKVAKVSQGVEDGPDTKRAKLDSSETTMVKKKVVFCPVKEALEVDWSSEKAKAALKRTTSDYFLLQVLLKFRTDKGRDPSSDTYEEDSELLLQIRNDVLDSLGISPDLLPEDFVRYCFSEMAPVCAVVGGILAQEIVKALSQRDPPHNNFFFFDGMKGNGIVECLGPK"}}, "biological_target": "XRCC4 (human (endogenous in Panc-1)) (UniProt Q13426)", "experiment": "co-IP; Pierce Co-IP Kit; 10 µg anti-SAE1/anti-XRCC4 or control IgG on resin with 500 µg protein at 4 °C overnight, western blot; Panc-1 cells treated with CAF-derived EVs (CAFs with lenti-circBIRC6-shRNA or lenti-NC-shRNA; SAE1 siRNA; XRCC4 mutant plasmids)", "note": "These are yes or no findings as the source states them, for the method shown. In cells and extracts the contact can be indirect. Some binding calls cover weakened binding; strength is not graded here."}
{"binder": "B1", "values": [{"measurement": "binding", "result": "binds"}]}
